No constants are given. Whether binding was seen depends on the method and setting. Some entries that bind do so weakly or less than the wild type.
Target: FliW-T25 (Clostridioides difficile) (UniProt Q18CX4)
Assay: two-hybrid

Amino acid sequences for entries named in this document (tags omitted).
UniProt Q18CX4, whole entry: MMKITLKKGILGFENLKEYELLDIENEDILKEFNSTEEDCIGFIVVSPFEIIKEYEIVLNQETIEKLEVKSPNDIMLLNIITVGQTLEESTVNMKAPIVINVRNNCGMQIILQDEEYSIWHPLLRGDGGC
UniProt Q18CX3, whole entry: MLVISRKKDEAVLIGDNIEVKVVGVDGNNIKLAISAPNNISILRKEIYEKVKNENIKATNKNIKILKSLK

With CsrA-T18 (from UniProt Q18CX3 1-70) the binding was “binds”.
